Results are given in words; binding and its absence hold for the method and conditions named. In cells and extracts the contact can be indirect. A yes stands for co-enrichment or nearness to the bait. Other partners may have been found. Each block holds one molecule with its values, some of them ahead of it.
Legend:
[1] = molecular target: TbEMC3-HA (Trypanosoma brucei) (UniProt Q38BC5); experiment: affinity purification with mass spectrometry; parasites cross-linked in 0.1% paraformaldehyde in PBS for 8 min at room temperature, glycine 125 mM; lysed and immunoprecipitated as for the co-IP, beads washed with lysis buffer lacking detergent; MS of the TbEMC3-HA and TbEMC5-cMyc immunoprecipitates
[2] = molecular target: TbEMC5-cMyc (Trypanosoma brucei); experiment: as above

Sequences of proteins named here, by UniProt entry; tags and fusion partners are left off. A change or cut given only in a name is not applied to a line headed by its entry.
UniProt Q38BC5: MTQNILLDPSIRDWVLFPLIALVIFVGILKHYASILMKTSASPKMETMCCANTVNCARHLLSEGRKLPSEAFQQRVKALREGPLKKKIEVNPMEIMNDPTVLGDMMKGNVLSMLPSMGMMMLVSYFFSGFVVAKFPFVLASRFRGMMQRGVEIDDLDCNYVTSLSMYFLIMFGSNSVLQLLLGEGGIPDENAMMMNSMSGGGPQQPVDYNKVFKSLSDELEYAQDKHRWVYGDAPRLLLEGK
UniProt Q580G6: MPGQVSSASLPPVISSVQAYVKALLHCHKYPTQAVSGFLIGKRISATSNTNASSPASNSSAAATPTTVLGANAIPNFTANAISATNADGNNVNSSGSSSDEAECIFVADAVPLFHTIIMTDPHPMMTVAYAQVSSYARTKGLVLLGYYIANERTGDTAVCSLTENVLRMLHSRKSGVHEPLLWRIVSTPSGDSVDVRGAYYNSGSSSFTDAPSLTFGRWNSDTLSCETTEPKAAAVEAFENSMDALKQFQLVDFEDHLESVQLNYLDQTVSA
UniProt Q388W2: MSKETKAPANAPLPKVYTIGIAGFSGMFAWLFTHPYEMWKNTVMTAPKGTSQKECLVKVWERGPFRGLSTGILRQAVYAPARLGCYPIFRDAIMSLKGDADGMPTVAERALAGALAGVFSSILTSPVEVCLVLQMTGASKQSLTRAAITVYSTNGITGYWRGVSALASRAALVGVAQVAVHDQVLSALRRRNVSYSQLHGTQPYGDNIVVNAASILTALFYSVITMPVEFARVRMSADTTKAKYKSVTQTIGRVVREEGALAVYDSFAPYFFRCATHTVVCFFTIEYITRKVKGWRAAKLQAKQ
UniProt Q382D5: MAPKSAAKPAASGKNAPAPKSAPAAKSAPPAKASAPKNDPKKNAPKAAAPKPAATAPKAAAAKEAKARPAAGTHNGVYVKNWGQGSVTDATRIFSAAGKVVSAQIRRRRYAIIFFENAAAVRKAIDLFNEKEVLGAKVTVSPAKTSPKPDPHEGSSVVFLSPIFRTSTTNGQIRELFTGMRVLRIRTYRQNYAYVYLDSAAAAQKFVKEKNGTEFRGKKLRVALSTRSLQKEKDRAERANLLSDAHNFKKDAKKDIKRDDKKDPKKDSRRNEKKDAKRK
UniProt Q57WZ3: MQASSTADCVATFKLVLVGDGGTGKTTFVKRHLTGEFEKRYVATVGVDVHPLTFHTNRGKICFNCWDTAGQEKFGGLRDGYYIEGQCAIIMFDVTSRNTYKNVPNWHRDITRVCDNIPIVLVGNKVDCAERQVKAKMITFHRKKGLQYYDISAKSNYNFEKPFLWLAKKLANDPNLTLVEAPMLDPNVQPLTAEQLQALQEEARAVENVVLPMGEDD
UniProt Q38EX8: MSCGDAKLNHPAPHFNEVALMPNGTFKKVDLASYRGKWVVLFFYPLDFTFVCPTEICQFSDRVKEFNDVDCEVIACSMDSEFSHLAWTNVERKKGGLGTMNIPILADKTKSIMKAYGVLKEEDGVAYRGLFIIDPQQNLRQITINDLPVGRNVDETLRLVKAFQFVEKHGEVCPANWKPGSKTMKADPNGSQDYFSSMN

binding [1]: binds
Molecule: TbEMC8 (from UniProt Q580G6)

binding [1]: binds
Molecule: mitochondrial carrier protein MCP12 (from UniProt Q388W2)

binding [1]: binds
Molecule: nuclear RNA binding domain 2 (from UniProt Q382D5)

binding [1]: binds
Molecule: putative GTP binding nuclear protein RTB2 (from UniProt Q57WZ3)

binding [1]: binds
Molecule: putative histone H2B (from UniProt Q389T1)

binding [1]: binds
Molecule: tryparedoxin peroxidase (from UniProt Q38EX8) (enzyme)

binding [2]: binds
B1: glycosomal membrane protein GIM5B (protein, UniProt Q9N9C9 1-241)
chain: MSAQAHTYLCDAWNRDKVMAIVQFLPMALEGPARTAGCESLALSLGNLARMGDAYRAVTRLSLLANALSKPTLTSLSKPAGDMVASRIDQLSHLFHIGFCLNENTAVLAGHGVFPKSLHRLSGVAVLCWMYTLVLGIVRQLYMLSKMRGHCTAAAASGDDKRKTCPYGGCKRVMVDLLKLVCYFLFALTCLPEGKPQLLANASGPLVPLHVMVKALSPNPLHASNTVRGLLGLIASVCEFY

From paper PMC9113592
